According to PMC9556547:
Results are given in words; binding and its absence hold for the method and conditions named. For some of these results: In cells and extracts the contact can be indirect. Some binding calls cover weakened binding; strength is not graded here.

Protein sequences, listed by entry. Tags and fused reporters are not part of them. Lines headed by an entry give the natural chain unless they say otherwise; changes in a name come on top.
UniProt Q96KP1: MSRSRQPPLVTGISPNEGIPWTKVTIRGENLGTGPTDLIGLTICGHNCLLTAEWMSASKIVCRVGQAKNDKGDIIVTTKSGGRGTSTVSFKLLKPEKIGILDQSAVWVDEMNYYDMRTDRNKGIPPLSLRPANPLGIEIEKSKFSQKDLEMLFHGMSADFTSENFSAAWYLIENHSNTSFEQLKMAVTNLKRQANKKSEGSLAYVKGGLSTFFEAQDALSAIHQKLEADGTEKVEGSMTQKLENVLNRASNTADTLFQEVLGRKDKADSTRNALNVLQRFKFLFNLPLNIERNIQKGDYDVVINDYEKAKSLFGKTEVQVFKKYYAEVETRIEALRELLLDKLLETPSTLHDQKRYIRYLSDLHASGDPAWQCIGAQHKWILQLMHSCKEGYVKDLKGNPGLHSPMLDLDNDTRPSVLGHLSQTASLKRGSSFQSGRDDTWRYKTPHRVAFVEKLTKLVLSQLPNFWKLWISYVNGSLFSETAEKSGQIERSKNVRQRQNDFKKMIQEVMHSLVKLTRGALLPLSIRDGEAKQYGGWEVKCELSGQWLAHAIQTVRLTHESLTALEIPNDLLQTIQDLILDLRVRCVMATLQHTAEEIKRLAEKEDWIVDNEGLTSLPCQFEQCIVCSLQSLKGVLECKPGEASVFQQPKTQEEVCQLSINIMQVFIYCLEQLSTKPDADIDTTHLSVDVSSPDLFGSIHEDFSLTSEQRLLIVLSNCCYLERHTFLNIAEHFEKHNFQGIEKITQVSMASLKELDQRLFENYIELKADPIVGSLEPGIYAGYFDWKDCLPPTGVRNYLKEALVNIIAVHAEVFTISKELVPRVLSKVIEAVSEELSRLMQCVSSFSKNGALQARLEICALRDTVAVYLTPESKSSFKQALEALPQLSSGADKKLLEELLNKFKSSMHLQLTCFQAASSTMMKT
UniProt P62330: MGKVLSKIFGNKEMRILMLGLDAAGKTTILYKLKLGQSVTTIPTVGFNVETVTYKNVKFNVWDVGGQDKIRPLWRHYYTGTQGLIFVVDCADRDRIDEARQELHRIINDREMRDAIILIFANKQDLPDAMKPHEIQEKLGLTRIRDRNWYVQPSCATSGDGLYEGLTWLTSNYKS

Experiments:
Flag-EXOC2 (human) = Flag-EXOC2 (human) (UniProt Q96KP1); assay: co-IP; HEK293T co-transfected with Flag-tagged exocyst subunit and HA-tagged ARF6 or its variants; anti-Flag M2 beads; western blot
GST-EXOC2 (human) = GST-EXOC2 (human) (UniProt Q96KP1); assay: pull-down; 500 ng GST or GST-EXOC2 mixed with 200 ng WT or mutant ARF6-Flag in Buffer G (50 mM Tris, pH 7.5, 150 mM NaCl, 0.1% Triton X-100); BSA-blocked Glutathione Sepharose 4B, 1 h at 4 °C; western blot; both purified

Substance | binding (Flag-EXOC2 (human)) | binding (GST-EXOC2 (human))
ARF6 Q67L-HA (from UniProt P62330 1-175) | binds | 
ARF6 T27N-HA (from UniProt P62330 1-175) | binds | 
ARF6-Flag (WT) (from UniProt P62330 1-175) |  | binds
ARF6-HA (WT) (from UniProt P62330 1-175) | binds | 
